Measured values taken from article PMC10353116.
Results are given in words; binding and its absence hold for the method and conditions named. Binding seen in cells or lysates may run through a third protein. Some binding calls cover weakened binding; strength is not graded here.

Sequences of proteins named here, by UniProt entry; tags and fusion partners are left off. Residues count along the entry.
UniProt Q9H6L5: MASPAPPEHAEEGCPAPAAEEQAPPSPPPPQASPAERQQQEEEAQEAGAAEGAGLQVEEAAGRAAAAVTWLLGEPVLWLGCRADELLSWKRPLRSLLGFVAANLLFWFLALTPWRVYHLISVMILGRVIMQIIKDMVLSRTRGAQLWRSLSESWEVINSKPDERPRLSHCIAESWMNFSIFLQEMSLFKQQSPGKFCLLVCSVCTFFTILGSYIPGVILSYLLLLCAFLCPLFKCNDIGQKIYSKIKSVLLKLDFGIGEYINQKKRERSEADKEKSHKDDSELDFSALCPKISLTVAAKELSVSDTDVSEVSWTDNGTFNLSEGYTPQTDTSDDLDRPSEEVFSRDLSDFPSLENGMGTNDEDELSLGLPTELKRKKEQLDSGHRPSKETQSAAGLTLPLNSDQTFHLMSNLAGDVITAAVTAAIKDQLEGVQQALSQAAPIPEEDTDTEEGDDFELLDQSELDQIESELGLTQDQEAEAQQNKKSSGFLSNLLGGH
UniProt P36888, residues 27-993: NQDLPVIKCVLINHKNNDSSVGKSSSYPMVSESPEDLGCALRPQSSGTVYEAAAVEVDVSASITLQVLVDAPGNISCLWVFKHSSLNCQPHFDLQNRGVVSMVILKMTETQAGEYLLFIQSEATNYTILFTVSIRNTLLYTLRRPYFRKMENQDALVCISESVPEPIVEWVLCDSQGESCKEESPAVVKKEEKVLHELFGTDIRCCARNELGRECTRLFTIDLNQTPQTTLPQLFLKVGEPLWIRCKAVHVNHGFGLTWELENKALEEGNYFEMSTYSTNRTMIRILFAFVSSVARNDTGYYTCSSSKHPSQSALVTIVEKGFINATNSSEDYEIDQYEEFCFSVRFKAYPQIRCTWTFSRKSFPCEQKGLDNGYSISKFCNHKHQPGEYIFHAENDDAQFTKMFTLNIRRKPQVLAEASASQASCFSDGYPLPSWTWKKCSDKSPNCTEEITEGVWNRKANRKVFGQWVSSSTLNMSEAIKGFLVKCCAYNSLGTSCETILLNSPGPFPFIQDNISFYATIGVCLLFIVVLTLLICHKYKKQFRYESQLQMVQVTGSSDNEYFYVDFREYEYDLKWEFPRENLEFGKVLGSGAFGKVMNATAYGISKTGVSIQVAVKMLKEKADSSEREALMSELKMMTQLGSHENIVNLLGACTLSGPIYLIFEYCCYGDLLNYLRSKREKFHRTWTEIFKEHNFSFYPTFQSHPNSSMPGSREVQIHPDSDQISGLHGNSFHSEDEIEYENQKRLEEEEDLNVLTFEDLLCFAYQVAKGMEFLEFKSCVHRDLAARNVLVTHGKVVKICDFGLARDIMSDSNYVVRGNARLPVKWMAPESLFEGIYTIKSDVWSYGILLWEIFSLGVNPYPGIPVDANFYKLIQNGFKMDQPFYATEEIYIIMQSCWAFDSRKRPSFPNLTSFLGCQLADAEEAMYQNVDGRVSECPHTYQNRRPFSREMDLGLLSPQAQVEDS

Molecular target: Family with sequence similarity 134 member B (FAM134B) (human) (UniProt Q9H6L5)
Experiment: co-IP; co-immunoprecipitation of FAM134B and FLT3; cells, antibodies and direction not stated

binding: binds
Substance: FMS related receptor tyrosine kinase 3 (FLT3) (from UniProt P36888 27-993)
